PubChem BioAssay AID1259405, NCATS, 2018
Purpose: 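Knock-downs that lift recombinant protein yield in hamster ovary cells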 (primary screen). Cell system: Chinese hamster CHO-K1 ovary cells with stable secreted eGFP expression. Reagent: single siRNA against mouse genes, 0.8 pmol siRNA per well (2 µl of 400 nM stock). Timing: 3 days. Read-out: 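Per-well intracellular GFP measured by laser scanning cytometry, plus viability from ATP luminescence, each relative to plate median of non-targeting control wells, in %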. Direction: GFP, % of control: higher = more GFP per well, higher productivity; viability (ATP), % of control: higher = more viable cells (more ATP). Active means: 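Called active when intracellular GFP, relative to negative control, is at or above 120%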.
This is an unselected part of about 50,000 reagents tested. Over the whole deposit, about 4,000 (8%) got an active call. 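Mouse siRNA library applied to hamster cells; one well for each siRNA.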 Reagents against one gene are numbered here.

target,reagent,"GFP, % of control","viability (ATP), % of control",Outcome
Plppr2 (phospholipid phosphatase related 2),1,62.9,80.9,inactive
Plppr2 (phospholipid phosphatase related 2),2,44.3,66.3,inactive
Plppr2 (phospholipid phosphatase related 2),3,78.6,79.3,inactive
Or6k6 (olfactory receptor family 6 subfamily K member 6),1,57.6,63.2,inactive
Or6k6 (olfactory receptor family 6 subfamily K member 6),2,54.3,73,inactive
Or6k6 (olfactory receptor family 6 subfamily K member 6),3,24.5,74.4,inactive
Ttc39a (tetratricopeptide repeat domain 39A),1,58,68.4,inactive
Ttc39a (tetratricopeptide repeat domain 39A),2,57.7,57,inactive
Ttc39a (tetratricopeptide repeat domain 39A),3,66.5,89.4,inactive
Or3a1d (olfactory receptor family 3 subfamily A member 1D),1,38.9,30.3,inactive
Or3a1d (olfactory receptor family 3 subfamily A member 1D),2,98.7,82.4,inactive
Or3a1d (olfactory receptor family 3 subfamily A member 1D),3,30.7,36,inactive
Cdk2ap2 (cyclin dependent kinase 2 associated protein 2),1,69.5,84.2,inactive
Cdk2ap2 (cyclin dependent kinase 2 associated protein 2),2,90.1,72.3,inactive
Cdk2ap2 (cyclin dependent kinase 2 associated protein 2),3,38.7,24.9,inactive
Mavs (mitochondrial antiviral signaling protein),1,118,87.1,inactive
Mavs (mitochondrial antiviral signaling protein),2,84.2,56.9,inactive
Mavs (mitochondrial antiviral signaling protein),3,112,90.4,inactive
Crlf3 (cytokine receptor-like factor 3),1,71.4,82,inactive
Crlf3 (cytokine receptor-like factor 3),2,96.3,71.3,inactive
Crlf3 (cytokine receptor-like factor 3),3,110,114,inactive
Fbxl15 (F-box and leucine-rich repeat protein 15),1,78.3,65.6,inactive
Fbxl15 (F-box and leucine-rich repeat protein 15),2,25.6,45.5,inactive
Fbxl15 (F-box and leucine-rich repeat protein 15),3,48.7,42,inactive
"Topors (topoisomerase I binding, arginine/serine-rich)",1,68.5,54.6,inactive
"Topors (topoisomerase I binding, arginine/serine-rich)",2,68.6,61.8,inactive
"Topors (topoisomerase I binding, arginine/serine-rich)",3,73.2,72,inactive
"Atp8b1 (ATPase, class I, type 8B, member 1)",1,66.9,80.1,inactive
"Atp8b1 (ATPase, class I, type 8B, member 1)",2,91.7,93.4,inactive
"Atp8b1 (ATPase, class I, type 8B, member 1)",3,93.4,120,inactive
Gm5409 (predicted pseudogene 5409),1,97.6,61.8,inactive
Gm5409 (predicted pseudogene 5409),2,53.4,72,inactive
Gm5409 (predicted pseudogene 5409),3,79.3,87.7,inactive
Ccdc149 (coiled-coil domain containing 149),1,33.1,57.9,inactive
Ccdc149 (coiled-coil domain containing 149),2,83.7,61.5,inactive
Ccdc149 (coiled-coil domain containing 149),3,90.9,88,inactive
Stk11ip (serine/threonine kinase 11 interacting protein),1,118,105,inactive
Stk11ip (serine/threonine kinase 11 interacting protein),2,26.9,44.9,inactive
Fbxo7 (F-box protein 7),1,74.1,72.4,inactive
Fbxo7 (F-box protein 7),2,72.4,86.7,inactive
Fbxo7 (F-box protein 7),3,61.3,36.8,inactive
Prrt3 (proline-rich transmembrane protein 3),1,76.4,71.4,inactive
Prrt3 (proline-rich transmembrane protein 3),2,78.9,60.4,inactive
Prrt3 (proline-rich transmembrane protein 3),3,108,59.2,inactive
Mx1 (MX dynamin-like GTPase 1),1,69.5,59.2,inactive
Mx1 (MX dynamin-like GTPase 1),2,44.9,33.3,inactive
Mx1 (MX dynamin-like GTPase 1),3,75.7,70.1,inactive
Melk (maternal embryonic leucine zipper kinase),1,51.6,76.9,inactive
Prc1 (protein regulator of cytokinesis 1),1,54.1,84.7,inactive
Prc1 (protein regulator of cytokinesis 1),2,73.9,83.6,inactive
"Tle5 (TLE family member 5, transcriptional modulator)",1,38.9,44.3,inactive
"Tle5 (TLE family member 5, transcriptional modulator)",2,34.2,21.6,inactive
"Tle5 (TLE family member 5, transcriptional modulator)",3,57.1,85.1,inactive
Ncoa4 (nuclear receptor coactivator 4),1,79.2,62.3,inactive
Ncoa4 (nuclear receptor coactivator 4),2,85.7,83.5,inactive
Ncoa4 (nuclear receptor coactivator 4),3,93.9,68.1,inactive
Fndc11 (fibronectin type III domain containing 11),1,70.6,50.7,inactive
Fndc11 (fibronectin type III domain containing 11),2,58.7,89.4,inactive
Fndc11 (fibronectin type III domain containing 11),3,88.6,65.7,inactive
Jaml (junction adhesion molecule like),1,85,64.6,inactive
Jaml (junction adhesion molecule like),2,66.5,70.7,inactive
Jaml (junction adhesion molecule like),3,46,74.7,inactive
Cnih4 (cornichon family AMPA receptor auxiliary protein 4),1,118,97.1,inactive
Cnih4 (cornichon family AMPA receptor auxiliary protein 4),2,167,102,active
Cnih4 (cornichon family AMPA receptor auxiliary protein 4),3,69,61.9,inactive
"Tnfsf12 (tumor necrosis factor (ligand) superfamily, member 12)",1,113,70.8,inactive
"Tnfsf12 (tumor necrosis factor (ligand) superfamily, member 12)",2,68.7,81.2,inactive
"Tnfsf12 (tumor necrosis factor (ligand) superfamily, member 12)",3,142,145,active
Txndc12 (thioredoxin domain containing 12 (endoplasmic reticulum)),1,88.3,108,inactive
Txndc12 (thioredoxin domain containing 12 (endoplasmic reticulum)),2,88.6,85.2,inactive
Txndc12 (thioredoxin domain containing 12 (endoplasmic reticulum)),3,109,79.9,inactive
B4galt5,1,105,108,inactive
B4galt5,2,65.6,73.6,inactive
B4galt5,3,92.8,105,inactive
"Tecr (trans-2,3-enoyl-CoA reductase)",1,59.8,64.3,inactive
"Tecr (trans-2,3-enoyl-CoA reductase)",2,64.6,54.8,inactive
"Tecr (trans-2,3-enoyl-CoA reductase)",3,124,61,active
Atg5 (autophagy related 5),1,72.7,101,inactive
Atg5 (autophagy related 5),2,57.8,79.2,inactive
Atg5 (autophagy related 5),3,62.4,71.5,inactive
Tmem9 (transmembrane protein 9),1,68.9,87.1,inactive
Tmem9 (transmembrane protein 9),2,125,126,active
Tmem9 (transmembrane protein 9),3,140,142,active
"Bms1 (BMS1, ribosome biogenesis factor)",1,47.4,54.2,inactive
"Bms1 (BMS1, ribosome biogenesis factor)",2,68.6,73.7,inactive
"Bms1 (BMS1, ribosome biogenesis factor)",3,90.7,125,inactive
"Prl2c5 (prolactin family 2, subfamily c, member 5)",1,63.2,63.6,inactive
"Prl2c5 (prolactin family 2, subfamily c, member 5)",2,54.5,45.5,inactive
"Prl2c5 (prolactin family 2, subfamily c, member 5)",3,52.2,39.1,inactive
Zfp449 (zinc finger protein 449),1,91,48.4,inactive
Zfp449 (zinc finger protein 449),2,74.7,66.7,inactive
"Fgd3 (FYVE, RhoGEF and PH domain containing 3)",1,163,140,active
"Fgd3 (FYVE, RhoGEF and PH domain containing 3)",2,65,69.3,inactive
"Fgd3 (FYVE, RhoGEF and PH domain containing 3)",3,46.5,67,inactive
Ltb4r2 (leukotriene B4 receptor 2),1,24,37.4,inactive
Ltb4r2 (leukotriene B4 receptor 2),2,52.5,67.5,inactive
Ltb4r2 (leukotriene B4 receptor 2),3,61.6,75,inactive
Golph3 (golgi phosphoprotein 3),1,80.5,80.7,inactive
Golph3 (golgi phosphoprotein 3),2,70.8,50,inactive
Golph3 (golgi phosphoprotein 3),3,120,53.7,active
Il31ra (interleukin 31 receptor A),1,62.2,61.5,inactive
Il31ra (interleukin 31 receptor A),2,71.6,59.8,inactive
Il31ra (interleukin 31 receptor A),3,106,99.3,inactive
Hcrtr1 (hypocretin (orexin) receptor 1),1,50.5,72.7,inactive
Hcrtr1 (hypocretin (orexin) receptor 1),2,52.6,68.4,inactive
Hcrtr1 (hypocretin (orexin) receptor 1),3,63.2,67.4,inactive
Vrk3 (vaccinia related kinase 3),1,73,83.3,inactive
Vrk3 (vaccinia related kinase 3),2,24.7,44.4,inactive
Vrk3 (vaccinia related kinase 3),3,65.4,73,inactive

Reagents above marked active:
target,reagent,"GFP, % of control","viability (ATP), % of control",Outcome
Cnih4 (cornichon family AMPA receptor auxiliary protein 4),2,167,102,active
"Tnfsf12 (tumor necrosis factor (ligand) superfamily, member 12)",3,142,145,active
"Tecr (trans-2,3-enoyl-CoA reductase)",3,124,61,active
Tmem9 (transmembrane protein 9),2,125,126,active
Tmem9 (transmembrane protein 9),3,140,142,active
"Fgd3 (FYVE, RhoGEF and PH domain containing 3)",1,163,140,active
Golph3 (golgi phosphoprotein 3),3,120,53.7,active
